Article PMC5261807 (2017)
Results are given in words; binding and its absence hold for the method and conditions named. For some assays here: Binding seen in cells or lysates may run through a third protein. Some entries that bind do so weakly or less than the wild type. Sequences can lack the tags named with a protein.

What was measured:
[1] = target: T1, Bdf2-TAP (S. cerevisiae) (UniProt Q07442); experiment: tandem affinity purification with western blot; calmodulin eluates of TAP purifications from TAP-tagged Bdf2 and Swr1 strains, western blot for Bdf1
T1 sequence: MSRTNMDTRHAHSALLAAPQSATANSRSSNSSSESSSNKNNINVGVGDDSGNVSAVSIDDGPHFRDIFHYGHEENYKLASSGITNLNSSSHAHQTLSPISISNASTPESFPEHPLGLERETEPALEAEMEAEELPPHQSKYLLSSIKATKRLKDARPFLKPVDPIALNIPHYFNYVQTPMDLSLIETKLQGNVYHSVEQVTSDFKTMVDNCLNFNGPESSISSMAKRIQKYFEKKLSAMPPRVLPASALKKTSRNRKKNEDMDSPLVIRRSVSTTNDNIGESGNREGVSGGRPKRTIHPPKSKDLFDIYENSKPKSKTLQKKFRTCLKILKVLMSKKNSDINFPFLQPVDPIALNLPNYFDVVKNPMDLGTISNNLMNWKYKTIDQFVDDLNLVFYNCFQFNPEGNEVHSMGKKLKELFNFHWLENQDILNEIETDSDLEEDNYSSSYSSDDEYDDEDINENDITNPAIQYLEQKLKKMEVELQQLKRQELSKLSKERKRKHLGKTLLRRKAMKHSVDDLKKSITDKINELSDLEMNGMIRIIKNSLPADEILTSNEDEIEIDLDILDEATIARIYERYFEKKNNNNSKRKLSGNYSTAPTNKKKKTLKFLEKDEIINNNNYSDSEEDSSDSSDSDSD

[2] = target: T1, Bdf2-TAP (S. cerevisiae); experiment: co-IP; cells grown on YPD; lysis in HEPES 50 mM pH 7.5, NaCl 140 mM, EDTA 1 mM, glycerol 10%, NP-40 0.5%; Bdf2-TAP immunoprecipitated 2 h at 4°C on Dynabeads Pan Mouse IgG; western blot with Bdf1 antiserum

binding [1]: binds
binding [2]: binds
B1: Bdf1 (wild-type, untagged) (protein, UniProt P35817 1-686)
chain: MTDITPVQNDVDVNGNNVNDDVSSNLKRPIDQGDPSNGLAEEENPANNQLHLKKARLDGDALTSSPAGLAENGIEGATLAANGENGYNATGSGAEDEQQGLKKEEGGQGTKQEDLDENSKQELPMEVPKEPAPAPPPEPDMNNLPQNPIPKHQQKHALLAIKAVKRLKDARPFLQPVDPVKLDIPFYFNYIKRPMDLSTIERKLNVGAYEVPEQITEDFNLMVNNSIKFNGPNAGISQMARNIQASFEKHMLNMPAKDAPPVIAKGRRSSAQEDAPIVIRRAQTHNGRPKRTIHPPKSKDIYPYESKKPKSKRLQQAMKFCQSVLKELMAKKHASYNYPFLEPVDPVSMNLPTYFDYVKEPMDLGTIAKKLNDWQYQTMEDFERDVRLVFKNCYTFNPDGTIVNMMGHRLEEVFNSKWADRPNLDDYDSDEDSRTQGDYDDYESEYSESDIDETIITNPAIQYLEEQLARMKVELQQLKKQELEKIRKERRLARGSKKRGKRSKGRSGSKNASSKGRRDKKNKLKTVVTYDMKRIITERINDLPTSKLERAIDIIKKSMPNISEDDEVELDLDTLDNHTILTLYNTFFRQYESSSGASNGLDGTSGVTRDASSLSPTSAGSRKRRSKALSQEEQSRQIEKIKNKLAILDSASPLSQNGSPGQIQSAAHNGFSSSSDDDVSSESEEE
